Some of the results follow. Shown are side measurements of this screen, not its main read-out; they come without a call. Most of these compounds were active or inconclusive in the main read-out, so they are no random draw. The note in brackets gives the kind of curve behind each potency; many fits are weak.
Assay: qHTS Assay for Lipid Storage Modulators in Drosophila S3 Cells;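 as to cell number change: cells counted by Cell Tracker Red CMTPX staining in the red channel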
Conditions: BODIPY lipid droplet fluorescence, 18-24 h; for cell number change: measured here: cell count max response, cells fed with added oleic acid
Outline: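 Drosophila S3 cells loaded with oleic acid (400 uM, as added) and compounds at several concentrations; lipid droplets imaged by 488-nm laser-scanning cytometry, 500–530 nm intensity and object ratio to cell channel. Percent activity normalized to 20 uM Triacsin C.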

[1] = measured here: lipid fluorescence (Fed channel) AC50, cells fed with added oleic acid
[2] = measured here: cell number channel AC50, cells fed with added oleic acid

| Compound | cell number change | AC50 [1] | AC50 [2] |
| --- | --- | --- | --- |
| S=C(NCCc1ccc(Cl)cc1)NCc1ccccc1 | -1.98% | 0.58 µM [rising, single point] | – |
| O=C(NCCc1ccc2c(c1)OCCO2)c1ccccn1 | -37.3% | – | 5.17 µM [falling, full curve] |
| O=C1CCC(/C=C/c2ccccc2)=NN1Cc1ccc(F)cc1 | 60.8% | – | – |
| C=CCNC(=O)CCc1nnc(C2(c3ccc(Cl)cc3)CCC2)o1 | 21.1% | 6.51 µM [falling, single point] | 4.61 µM [falling, single point] |
| O=C(COc1cc2oc(=O)c3c(c2cc1Cl)CCCC3)NCc1cccnc1 | -7.31% | 1.84 µM [falling, partial curve] | 6.51 µM [falling, single point] |
| COC(=O)c1ccc(OC)c(NS(=O)(=O)c2ccc(-n3cnnn3)cc2)c1 | 17.1% | 0.206 µM [rising, single point] | – |
| Cc1cc(-c2nnc(CCC(=O)NC(C)c3cccc4ccccc34)o2)no1 (stereo not given) | -0.31% | 0.092 µM [falling, full curve, poor fit] | – |
| N#CC1CN(C(c2ccccc2)c2ccccc2)C1 | -5.24% | – | – |
| COc1ccc(/C=N/Nc2nc(C)cc(-c3ccccc3)n2)cc1OC | -30.4% | 16.4 µM [falling, partial curve] | 14.6 µM [falling, single point] |
| CC(=O)c1ccc(NC(=O)CSc2nc(=O)cc(N)n2-c2ccccc2)cc1 | -39% | – | – |
| COc1cccc2sc(N(CCCN(C)C)C(=O)CCS(=O)(=O)c3ccccc3)nc12 | -16.7% | – | – |
| Cc1ccc(OC(=O)c2ccccc2C(=O)OCC(F)(F)C(F)F)cc1 | -26.3% | 0.92 µM [falling, full curve] | 0.291 µM [falling, full curve, poor fit] |
| CCOC(=O)c1sc(N/N=C/c2ccc(N(C)C)cc2)nc1C | -11.9% | 18.4 µM [falling, partial curve] | – |
| Cc1cccc2nc(COc3ccc(Cl)c4cccnc34)cn12 | – | 0.0731 µM [rising, partial curve, poor fit] | 0.092 µM [rising, single point] |
| O=C(Nc1ccccc1C(=O)O)c1cc(S(=O)(=O)N2CCCCC2)c(Cl)cc1Cl | 11.9% | 29.1 µM [rising, single point] | – |
| Cc1ccc(C)c(NC(=O)CNC(=O)N2CC(=O)Nc3ccccc32)c1 | -6.42% | 29.1 µM [rising, single point] | – |
| CCn1c(SCC(=O)N(C)C)nc2cc(S(=O)(=O)N3CCCCC3)ccc21 | -15.5% | 0.00517 µM [falling, full curve, poor fit] | – |
| CCn1c(SCC(=O)Nc2ccccc2OC)nc2ccccc2c1=O | 12% | 0.164 µM [rising, full curve, poor fit] | – |
| COc1ccc(CCNC(=O)CCCn2nc(C)c([N+](=O)[O-])c2C)cc1OC | 13.8% | 0.411 µM [rising, partial curve, poor fit] | – |

| Compound | cell number change | AC50 [1] | AC50 [2] |
| --- | --- | --- | --- |
| CCn1cc(Br)c(C(=O)Nc2ccc(F)cc2F)n1 | 27.4% | 0.651 µM [rising, single point] | 1.16 µM [rising, full curve, poor fit] |
| CCC(=O)N1CCN(c2ccc(NC(=O)COc3ccccc3[N+](=O)[O-])cc2)CC1 | -6.49% | 6.51 µM [rising, single point] | – |
| COc1ccc(Cl)cc1NC(=O)[C@@H]1CCCN1C(=O)c1cccs1 | 11.2% | 0.0058 µM [rising, full curve, poor fit] | – |
| CC(C)(C)C(=O)OCc1cn(-c2ccccc2)nn1 | -18.6% | – | 0.103 µM [falling, full curve, poor fit] |
| O=C(NNC(=O)c1cccc([N+](=O)[O-])c1)c1ccncc1 | 31.6% | – | 0.00411 µM [rising, full curve, poor fit] |
| O=C(CCN1CCC(c2ccccc2)C1)c1ccc2c(c1)OCCO2 (stereo not given) | -47.9% | 29.1 µM [falling, single point] | 18.4 µM [falling, single point] |
| COc1ccc(NC(=O)CSc2nc3nc(C)cc(C)n3n2)cc1 | 10.3% | 5.17 µM [falling, single point] | – |
| CSc1cccc(NC(=O)C(C)C)c1 | 117% | 23.1 µM [rising, partial curve] | 14.6 µM [rising, partial curve] |
| COc1ccc(CN2CN(C(C)C)CSC2=S)cc1 | -17.4% | 25.9 µM [falling, partial curve, poor fit] | – |
| Cc1ccc(S(=O)(=O)c2ccc(Cl)cc2)cc1S(=O)(=O)N1CCOCC1 | 67.8% | – | 6.51 µM [rising, partial curve] |
| Cc1cc(C)c(NC(=O)c2ccc(S(=O)(=O)N(C)C)cc2)c(C)n1 | 0.625% | 0.82 µM [falling, full curve] | – |
| O=C1COCC(=O)N1CCc1c[nH]c2ccccc12 | 18.6% | 0.326 µM [falling, single point] | 0.259 µM [falling, single point] |
| CC1CCCN(C(=O)CCNS(=O)(=O)c2ccc3c(c2)c(=O)n(C)c(=O)n3C)C1 (stereo not given) | -50.5% | 4.11 µM [falling, single point] | 2.59 µM [falling, partial curve] |
| O=C(NCCCN1CCCC1=O)c1cc2ccccc2o1 | -15.3% | 2.31 µM [rising, partial curve] | – |
| Cc1ccc(-c2nc3ccccc3c(=O)n2CCN2CCOCC2)cc1 | – | 6.51 µM [rising, single point] | – |
| COCCn1ccc(O)c(Cc2ccc(Cl)cc2)c1=O | 15.5% | 3.26 µM [falling, single point] | 3.26 µM [falling, single point] |
| CCC1CCc2c(sc3nc(SCC(=O)NCc4ccco4)n(-c4ccccc4)c(=O)c23)C1 (stereo not given) | -30.9% | 11.6 µM [falling, partial curve] | 3.66 µM [falling, full curve] |
| COc1cccc([C@@H]2CC=C(C(=O)O)[C@H](c3cccc(Cl)c3)N2S(=O)(=O)c2ccc(C)cc2)c1 | -25.7% | 14.6 µM [falling, partial curve, poor fit] | – |
| Cn1nc(N)c2c(-c3ccc(Cl)cc3)c(C#N)c(N)nc21 | 11.5% | 1.84 µM [rising, partial curve, poor fit] | – |

Single values from the entries so far.
`N#CC1CN(C(c2ccccc2)c2ccccc2)C1` – cell number change: -5.24%
`CSc1cccc(NC(=O)C(C)C)c1` – AC50 [1]: 23.1 µM [rising, partial curve]

Later entries.

| Compound | cell number change | AC50 [1] | AC50 [2] |
| --- | --- | --- | --- |
| O=C(NC1CCN(C(=S)Nc2ccc(F)cc2)CC1)c1ccco1 | -2.14% | 4.11 µM [rising, full curve] | – |
| Cc1cccc(-c2n[nH]c(=S)n2C)c1 | -6.32% | 0.651 µM [rising, single point] | – |
| CCOC(=O)c1cc2c(ccn2C)n1CC(=O)N1CCN(c2ccccc2)CC1 | -17.7% | 8.2 µM [falling, partial curve] | – |
| Cc1nn(Cc2ccc(C(=O)Nc3nc4c(C)cccc4s3)o2)c(C)c1Br | -24.4% | 0.146 µM [falling, full curve] | – |
| CCN1CCc2c(sc(NC(=S)NC(=O)c3ccccc3)c2C#N)C1 | 4.02% | 5.8 µM [rising, full curve, poor fit] | – |
| CC(Oc1ccc(Br)cc1)C(=O)NCC(C)(C)N1CCOCC1 (stereo not given) | – | 6.51 µM [rising, single point] | 6.51 µM [rising, single point] |
| CCOc1c(Cl)cc(C(=O)Nc2ccccc2-c2ccccc2)cc1Cl | 12.6% | – | 0.00461 µM [falling, full curve, poor fit] |
| CN(Cc1ccccc1NC(=O)c1ccc(S(=O)(=O)N(C)C)cc1)C1CCCCC1 | 7.75% | – | 0.326 µM [falling, partial curve, poor fit] |
| O=C(NCc1ccc(F)cc1)c1cccnc1 | 1.76% | – | – |
| CN(C)S(=O)(=O)c1cc(NC(=O)COC(=O)CCSc2ccc(Cl)cc2)ccc1Cl | 17% | 0.82 µM [falling, single point] | – |
| CCOc1ccc(CN(C)Cc2cc(=O)oc3cc(C)c(Cl)cc23)cc1 | -4.01% | – | – |
| COc1ccc2ccc(O)c(CN(C)CC(=O)Nc3ccccc3C(F)(F)F)c2c1 | -25.7% | 16.4 µM [falling, partial curve] | – |
| CCOc1ccc(-c2cc(C(=O)NCCCn3ccnc3)c3cc(Br)ccc3n2)cc1 | -35.9% | – | – |
| COc1ccc(CC(=O)Nc2ccc(S(=O)(=O)Nc3ncccn3)cc2)cc1 | -19.6% | 14.6 µM [falling, partial curve] | 6.51 µM [falling, single point] |
| O=C(C[n+]1ccccc1)N/N=C/c1ccccc1[N+](=O)[O-] | -107% | 29.1 µM [falling, single point] | 29.1 µM [falling, partial curve, poor fit] |
| COc1ccc(-c2csc3ncnc(N4CCN(S(=O)(=O)c5cccc(Br)c5)CC4)c23)cc1 | 41.1% | – | 1.64 µM [rising, partial curve, poor fit] |
| Cc1onc(-c2ccccc2Cl)c1C(=O)Nc1cccc(-c2cn3cccnc3n2)c1 | 34.3% | 0.651 µM [rising, partial curve, poor fit] | 1.84 µM [rising, partial curve] |
| O=S(=O)(NCc1ccc(F)cc1)c1ccc(-n2cnnn2)cc1 | 3.63% | 4.11 µM [falling, single point] | – |
| O=C(N/N=C/c1ccc(Cl)cc1)c1sccc1OCc1ccc(F)cc1 | – | 2.31 µM [rising, full curve] | 2.91 µM [rising, partial curve] |

Among those listed so far, these have an NH in an aromatic ring:

| Compound | cell number change | AC50 [1] | AC50 [2] |
| --- | --- | --- | --- |
| O=C1COCC(=O)N1CCc1c[nH]c2ccccc12 | 18.6% | 0.326 µM [falling, single point] | 0.259 µM [falling, single point] |
| Cc1cccc(-c2n[nH]c(=S)n2C)c1 | -6.32% | 0.651 µM [rising, single point] | – |

— PubChem BioAssay AID2685 (National Center for Advancing Translational Sciences (NCATS), 2010)
